Measured values: PubChem BioAssay AID504467 (National Center for Advancing Translational Sciences (NCATS), 2011)
In all, about 330,000 compounds went through this assay and about 7,700 (2.3%) were called active. This list was built around the results that the source calls inconclusive (neither active nor inactive); the mix of calls is not that of the screen. The call rests on the fitted dose curve; in most records, active means well fitted inhibition curve with a large enough effect; inconclusive means small, poorly fitted or top-dose-only effect, or effect the other way; inactive means flat fitted curve, though single readings scatter. Where the call is inconclusive, the potency comes from a doubtful curve fit.

Experiment: qHTS screen for small molecules that inhibit ELG1-dependent DNA repair in human embryonic kidney (HEK293T) cells expressing luciferase-tagged ELG1; further: nearly all actives have a fitted effect of over 55% in size
Details: HEK293T ELG1-luciferase reporter, luminescence, 16 h, DNA damage induced by 5-fluorouridine; activity change, negative = inhibition: at 46.1 µM (top of the series)
How it was run: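 HEK293T cells expressing luciferase-tagged ELG1 (2,000/well) received 5-Fluorouridine plus compound or DMSO for 16 hr at 37 °C. Luciferase was read by ONE-Glo luminescence after 30 min at room temperature.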
On the % scale 0 is the no-effect control and ±100 the full control effect; potency means the concentration at half of the fitted maximal effect.

Compound | Potency | activity change, negative = inhibition
N/C(=N\OC(=O)c1ccccc1)c1ccn[nH]1 | inconclusive: 14.6 µM [activator, partial curve] | –
COc1ccc(C(=O)Oc2ccc(/C=N/Nc3ccc(Cl)c(C(=O)O)c3)cc2OC)cc1 | inconclusive: 14.6 µM [activator, partial curve] | –
CCCCc1ccc(NC(=S)Nc2cccnc2)cc1 | – | inactive: 0.83%
CC(NC(=O)COC(=O)CCc1nc(=O)c2ccccc2n1C)c1ccccc1 (stereo not given) | inconclusive: 7.3 µM [activator, partial curve] | –
Cc1nn(Cc2ccccc2)c(C)c1NC(=O)c1noc2c1CCc1ccccc1-2 | inconclusive: 18.4 µM [inhibitor, single point] | –
Cc1ccc(N2CN=C(c3ccccc3)NC2=S)cc1 | inconclusive: 9.2 µM [activator, partial curve] | –
Cc1ccc(OCC(=O)NC(=S)Nc2cccc(NC(=O)c3ccc(Cl)cc3Cl)c2)cc1 | – | inactive: -13.3%
CC(=O)Nc1ccc(NC(=O)COC(=O)COc2ccc3ccccc3c2)cc1 | – | inactive: 19.1%
CCN(CC)C(=O)CSc1nnc(-c2c[nH]c3ccccc23)o1 | inconclusive: 20 µM [activator, single point] | –
CCC(=O)Nc1ccccc1C(=O)N1CCCC1 | – | inactive: 13%
CC(C)(C)c1ccc(C(=O)NC(=S)NCc2cccnc2)cc1 | – | inactive: 9.65%
CC1CCN(C(=O)C2CCN(S(=O)(=O)c3cccs3)CC2)CC1 | inconclusive: 14.6 µM [activator, partial curve] | –
Cc1ccc2c(c1)N(C(=O)CCC(=O)NCCN1CCOCC1)CCO2 | – | inactive: 4.83%
O=S(=O)(Cc1ccccc1)c1cnc2ccccc2n1 | – | inactive: 2.22%
COc1ccc(NC(=O)C(NC(=O)Cc2cccs2)c2ccccc2)cc1 (stereo not given) | – | inactive: 7.59%
COC(=O)c1cc(OC)c(OC)cc1NC(=O)CSc1nnnn1Cc1ccccc1 | inconclusive: 3.66 µM [inhibitor, single point] | –
CCOc1ccccc1NC(=O)c1nnn(-c2ccc3c(c2)OCCO3)c1N | inconclusive: 29.1 µM [activator, single point] | –
Cc1ccc(S(=O)(=O)N(CC(=O)N=Nc2c(O)[nH]c3ccccc23)c2ccc(C)c(C)c2)cc1 | inconclusive: 29.1 µM [inhibitor, single point] | –
CCOc1ccc(NC(=O)CN2CCCC2c2cccs2)cc1S(=O)(=O)N1CCCC1 (stereo not given) | inconclusive: 35.5 µM [inhibitor, single point] | –
CCc1ccc(NC(=O)CSc2nc3ccccc3c(=O)n2CCCC(=O)N2CCCC2)cc1 | inconclusive: 23.1 µM [inhibitor, single point] | –
Nc1nn(-c2ccccc2)c(N)c1N=Nc1cccc(F)c1 | inconclusive: 2.91 µM [activator, full curve] | –
Cc1ccc(NC(=O)c2cccs2)cc1 | inconclusive: 8.2 µM [activator, partial curve] | –
COc1ccc(CNC(=O)C[C@H]2C[C@H](C(=O)N3CCOCC3)[C@@]3(C)c4[nH]c5cc(-c6ccco6)ccc5c4CCN3C2=O)cc1OC | inconclusive: 25.9 µM [inhibitor, single point] | –
CC(C)(C)c1ccc(OC(=O)c2ccccc2)cc1 | inconclusive: 3.26 µM [activator, partial curve, poor fit] | –

Compound | Potency | activity change, negative = inhibition
CCCn1c(SCC(=O)c2cc(OC)ccc2OC)nnc1-c1ccco1 | inconclusive: 20.6 µM [inhibitor, single point] | –
CC(C)Cc1cc(C(=O)NCc2cccnc2)no1 | inconclusive: 16.4 µM [activator, partial curve] | –
COc1ccc(CN(C(=O)c2cc3ccccc3oc2=O)C2CCS(=O)(=O)C2)cc1OC (stereo not given) | inconclusive: 14.6 µM [activator, partial curve] | –
CCOC(CNC(=O)C(=O)Nc1cc2c3c(c1)CCN3C(=O)CC2)OCC | inconclusive: 23.1 µM [activator, partial curve] | –
CCOC(=O)c1c(NC(=S)Nc2cccc(C)c2)sc2c1CC(C)(C)SC2 | – | inactive: -18.2%
COC(=O)C/C=C/[C@@H](C)[C@@H](/C=N/OC[C@@H](C)[C@H](OCc1ccccc1)C(C)C)NS(=O)(=O)c1ccc(C)cc1 | inconclusive: 29.1 µM [inhibitor, single point] | –
CS(=O)(=O)N1N=C(c2cccs2)CC1c1ccc(Cl)o1 (stereo not given) | inconclusive: 29.1 µM [activator, single point] | –
NS(=O)(=O)c1ccc(N=NN2CCCCC2)cc1 | inconclusive: 20.6 µM [activator, partial curve] | –
Cc1ccccc1Nc1sc(C(=O)Nc2cccc(Cl)c2)c(N)c1C(N)=O | – | inactive: 6.32%
CCn1c(=O)c(CCC(=O)NCCN2CCOCC2)c(C)c2c(C)nn(-c3ccccc3)c21 | – | inactive: -20.4%
O=C(c1ccc(S(=O)(=O)N2CCCCC2)cc1)N1CCc2ccccc2C1 | inconclusive: 20.6 µM [inhibitor, partial curve, poor fit] | –
Cc1cc(C(=O)NNC(=S)NC2CCCCC2)cs1 | inconclusive: 9.2 µM [activator, partial curve, poor fit] | –
Cc1ccccc1CSc1nsc(N)n1 | inconclusive: 10.3 µM [activator, partial curve] | –
O=C(CN1CCOCC1)Nc1ccc(Cl)c(Cl)c1 | – | inactive: 1.53%
Cc1cc(N2CCN(S(=O)(=O)c3ccc(Cl)cc3)CC2)c2ccccc2n1 | active: 23.1 µM | –
COc1ccc2nc(Nc3ccccc3)sc2c1 | inconclusive: 6.51 µM [activator, partial curve] | –
Cc1cccc(C)c1NC(=O)c1cccc(N2C(=O)C3CCC(C)CC3C2=O)c1 (stereo not given) | – | inactive: 2.46%
O=C(Nc1ccccc1F)c1ccc(S(=O)(=O)NCC2CCCO2)cc1 (stereo not given) | inconclusive: 11.6 µM [inhibitor, single point] | –
Oc1ccc(/C(Cc2ccccn2)=N\Nc2ccccc2)c(O)c1 | – | inactive: 9.52%
CC(C)(C)C(=O)/C(=C/c1ccncc1)n1cncn1 | inconclusive: 23.1 µM [inhibitor, single point] | –
CCN1CCN(c2nc(-c3ccccc3)c3ccccc3n2)CC1 | – | inactive: -11.8%
COc1ccc(N(C(=O)c2cnccn2)C(C(=O)NCc2ccccc2)c2ccc(O)cc2)cc1 (stereo not given) | inconclusive: 18.3 µM [activator, single point] | –
Cc1nc2ncnn2c(C)c1CCC(=O)NCc1ccccc1 | inconclusive: 0.58 µM [inhibitor, single point] | –
C/C(=N/NC(=O)c1cccs1)c1ccc(N2CCOCC2)cc1 | inconclusive: 20.6 µM [activator, partial curve] | –

In the list so far, three have a tert-butyl group:
Compound | Potency | activity change, negative = inhibition
CC(C)(C)c1ccc(C(=O)NC(=S)NCc2cccnc2)cc1 | – | inactive: 9.65%
CC(C)(C)c1ccc(OC(=O)c2ccccc2)cc1 | inconclusive: 3.26 µM [activator, partial curve, poor fit] | –
CC(C)(C)C(=O)/C(=C/c1ccncc1)n1cncn1 | inconclusive: 23.1 µM [inhibitor, single point] | –

(cont.)

Compound | Potency | activity change, negative = inhibition
CC(C)(Cl)C1Cc2cc3ccc(=O)oc3cc2O1 (stereo not given) | inconclusive: 22.4 µM [activator, single point] | –
COc1cc2c(cc1OC)/C(=C/C(=O)c1ccc(F)cc1)NCC2 | – | inactive: -22.7%
O=C(O)c1c2c(nc3ccc(S(=O)(=O)N4CCC(C(=O)NCc5ccccc5Cl)CC4)cc13)CCCC2 | – | inactive: -7.72%
O=S(=O)(/N=C(\c1ccccc1)N1CCOCC1)c1ccc(Cl)cc1 | inconclusive: 20.6 µM [activator, single point] | –
COc1ccc(NC(=O)CSc2nccn2C)c([N+](=O)[O-])c1 | inconclusive: 29.1 µM [activator, single point] | –
Cc1cc(C)nc(SCC(=O)Nc2nccs2)n1 | inconclusive: 20.6 µM [activator, partial curve, poor fit] | –
CCOC(=O)CSCC(=O)N1N=C(c2cccs2)CC1c1ccc(F)cc1 (stereo not given) | – | inactive: 5.13%
Cc1csc(NC(=S)Nc2cccc(Cl)c2)n1 | inconclusive: 16.4 µM [activator, partial curve] | –
Cc1ccc(NC2=C/C(=N/S(=O)(=O)c3cccs3)c3ccccc3C2=O)cc1 | inconclusive: 13 µM [inhibitor, partial curve, poor fit] | –
Cc1cccc(NC(=O)c2onc3c2CCCC3)n1 | inconclusive: 0.731 µM [activator, full curve] | –
COc1cccc(C(=O)Nc2cc3c4c(c2)CC(=O)N4CCC3)c1 | inconclusive: 11.6 µM [activator, single point] | –
Cc1nc2ccc(Br)cn2c1C(=O)N/N=C\c1ccc(C(C)C)cc1 | inconclusive: 12.6 µM [inhibitor, single point] | –
c1ccc(N2CCN(c3nc4ccccc4[nH]3)CC2)nc1 | inconclusive: 20.6 µM [activator, partial curve] | –
Cc1c(Cl)cccc1NC(=O)Cn1c(CCC(=O)O)ccc1-c1ccccc1 | – | inactive: -9.92%
COc1cc(C(=O)O/N=C(\N)Cc2ccc([N+](=O)[O-])cc2)cc(OC)c1OC | inconclusive: 23.1 µM [inhibitor, single point] | –
COc1ccccc1N(C)S(=O)(=O)c1ccc(C(=O)NCC2CCCCC2)cc1 | inconclusive: 16.4 µM [inhibitor, single point] | –
COc1ccccc1C(=O)Nn1cnc2ccccc2c1=O | inconclusive: 23.1 µM [activator, partial curve] | –
O=C(CCCl)N1CCCC2(CCCCC2)C1 | inconclusive: 20.6 µM [inhibitor, partial curve] | –
Cn1nnnc1Sc1ncnc2scc(-c3cc4ccccc4o3)c12 | active: 20.6 µM | –
c1ccc(Cn2c(SCc3nc4ccccc4s3)nnc2-c2ccco2)cc1 | inconclusive: 23.1 µM [inhibitor, single point] | –
Cn1c(=O)n(C)c2cc(/C=C(/C#N)C(=O)NCc3ccco3)ccc21 | inconclusive: 29.1 µM [activator, single point] | –
COc1cc(CNCc2ccccn2)ccc1OCc1ccc(Cl)cc1Cl | – | inactive: -6.58%
